Results are given in words; binding and its absence hold for the method and conditions named. Some results given as binding are weak or reduced against the parent protein; the word gives no strength.
Assays:
Test in all cases: ELISA
[1] = molecular target: T1, human C-C chemokine receptor 1 (CCR1) on stably expressing HEK293T cells (human) (UniProt P32246)
T1 sequence: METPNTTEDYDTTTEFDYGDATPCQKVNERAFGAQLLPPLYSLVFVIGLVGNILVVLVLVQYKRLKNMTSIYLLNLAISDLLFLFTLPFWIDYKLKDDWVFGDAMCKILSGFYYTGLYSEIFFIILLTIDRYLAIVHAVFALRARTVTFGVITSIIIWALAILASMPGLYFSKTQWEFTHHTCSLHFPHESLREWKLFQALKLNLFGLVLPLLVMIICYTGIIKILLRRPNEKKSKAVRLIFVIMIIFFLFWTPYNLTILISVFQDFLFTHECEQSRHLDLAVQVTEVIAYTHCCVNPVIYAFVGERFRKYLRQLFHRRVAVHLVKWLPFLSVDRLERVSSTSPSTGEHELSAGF

Sequences of proteins named here, by UniProt entry; tags and fusion partners are left off. Residues count along the entry.
UniProt O95800: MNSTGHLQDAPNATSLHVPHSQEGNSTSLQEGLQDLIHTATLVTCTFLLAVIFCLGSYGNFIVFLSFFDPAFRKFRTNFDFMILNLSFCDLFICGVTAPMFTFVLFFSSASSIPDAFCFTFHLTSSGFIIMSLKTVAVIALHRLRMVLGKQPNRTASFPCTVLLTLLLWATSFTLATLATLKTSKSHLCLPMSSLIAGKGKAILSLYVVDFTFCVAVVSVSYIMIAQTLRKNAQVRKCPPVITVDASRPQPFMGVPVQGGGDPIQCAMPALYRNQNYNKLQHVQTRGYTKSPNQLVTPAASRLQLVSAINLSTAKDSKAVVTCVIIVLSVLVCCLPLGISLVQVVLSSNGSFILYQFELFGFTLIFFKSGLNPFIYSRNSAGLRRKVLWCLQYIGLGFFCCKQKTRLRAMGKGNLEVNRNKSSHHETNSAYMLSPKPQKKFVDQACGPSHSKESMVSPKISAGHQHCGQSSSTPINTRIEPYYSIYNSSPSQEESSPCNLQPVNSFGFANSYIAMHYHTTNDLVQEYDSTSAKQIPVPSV
UniProt P51681: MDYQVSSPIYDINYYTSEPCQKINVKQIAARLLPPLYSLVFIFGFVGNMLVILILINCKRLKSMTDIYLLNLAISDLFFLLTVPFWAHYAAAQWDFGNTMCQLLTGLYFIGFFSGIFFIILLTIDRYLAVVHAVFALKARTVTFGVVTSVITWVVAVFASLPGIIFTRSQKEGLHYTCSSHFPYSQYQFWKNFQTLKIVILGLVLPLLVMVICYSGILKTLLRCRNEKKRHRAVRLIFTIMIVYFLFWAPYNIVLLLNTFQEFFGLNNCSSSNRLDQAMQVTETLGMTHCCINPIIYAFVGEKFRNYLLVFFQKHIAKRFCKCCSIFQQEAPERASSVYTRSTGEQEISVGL
UniProt P13501, residues 24-91: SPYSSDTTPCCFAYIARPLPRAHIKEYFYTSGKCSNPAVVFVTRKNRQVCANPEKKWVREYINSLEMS
UniProt P51671, residues 24-97: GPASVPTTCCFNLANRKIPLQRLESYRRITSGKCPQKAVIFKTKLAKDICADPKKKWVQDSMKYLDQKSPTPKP

[2] = molecular target: T2, human C-C chemokine receptor 3 (CCR3) on stably expressing HEK293T cells (human) (UniProt P51677)
T2 sequence: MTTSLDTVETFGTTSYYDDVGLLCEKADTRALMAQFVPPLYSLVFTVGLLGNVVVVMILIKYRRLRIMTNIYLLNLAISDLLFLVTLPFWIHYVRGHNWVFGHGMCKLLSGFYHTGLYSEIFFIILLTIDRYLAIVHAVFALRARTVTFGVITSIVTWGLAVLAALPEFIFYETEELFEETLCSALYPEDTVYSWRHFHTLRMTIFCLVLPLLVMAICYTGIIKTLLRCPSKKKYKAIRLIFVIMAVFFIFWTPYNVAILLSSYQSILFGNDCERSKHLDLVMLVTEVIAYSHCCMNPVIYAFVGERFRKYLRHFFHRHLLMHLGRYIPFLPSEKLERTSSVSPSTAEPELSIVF

[3] = molecular target: human G protein-coupled receptor 75 (GPR75) on stably expressing HEK293T cells (human) (UniProt O95800)
[4] = molecular target: human C-C chemokine receptor 5 (CCR5) on stably expressing HEK293T cells (human) (UniProt P51681)

Row | Substance | binding [1] | binding [2] | binding [3] | binding [4]
1 | His-tagged recombinant human C-C chemokine ligand 5 (CCL5) (from UniProt P13501 24-91) | binds | binds | binds | –
2 | His-tagged recombinant human C-C chemokine ligand 11 (CCL11) (from UniProt P51671 24-97) | – | – | – | binds

From article doi:10.1101/2023.11.15.567291
